Reference: patent US20090111753A1, “Nogo-A Polypeptide Fragments, Variant Nogo Receptor-1 Polypeptides, and Uses Thereof” (Yale University, priority 2004, published 2009)

B1: 108, 131: human NgR1 mutant, listed residues mutated to alanine (protein)
chain: CPGACVCYNEPKVTTSCPQQGLQAVPVGIPAASQRIFLHGNRISHVPAASFRACRNLTILWLHSNVLARIDAAAFTGLALLAQLDLSDNAQLRSVDPATFHGLGALHTLHLDRCGLQELGPGLFRGLAALQYLYLQDNALQALPDDTFRDLGNLTHLFLHGNRISSVPERAFRGLHSLDRLLLHQNRVAHVHPHAFRDLGRLMTLYLFANNLSALPTEALAPLRALQYLRLNDNPWVCDCRARPLWAWLQKFRGSSSEVPCSLPQRLAGRDLKRLAANDLQGCAVATGPYHPIWTGRATDEEPLGLPKCCQPDAADKASVLEPGRPASAGNALKGRVPPGDSPPGNGSGPRHINDSPFGTLPGSAEPPLTAVRPEGSEPPGFPTSGPRRRPGCSRKNRTRSHCRLGQAGSGGGGTGDSEGSGALPSLTCSLTPLGLALVLWTVLGPC
B2: 256, 259: human NgR1 mutant, listed residues mutated to alanine (protein)
chain: CPGACVCYNEPKVTTSCPQQGLQAVPVGIPAASQRIFLHGNRISHVPAASFRACRNLTILWLHSNVLARIDAAAFTGLALLEQLDLSDNAQLRSVDPATFHGLGRLHTLHLDRCGLQELGPGLFRGLAALQYLYLQDNALQALPDDTFRDLGNLTHLFLHGNRISSVPERAFRGLHSLDRLLLHQNRVAHVHPHAFRDLGRLMTLYLFANNLSALPTEALAPLRALQYLALNANPWVCDCRARPLWAWLQKFRGSSSEVPCSLPQRLAGRDLKRLAANDLQGCAVATGPYHPIWTGRATDEEPLGLPKCCQPDAADKASVLEPGRPASAGNALKGRVPPGDSPPGNGSGPRHINDSPFGTLPGSAEPPLTAVRPEGSEPPGFPTSGPRRRPGCSRKNRTRSHCRLGQAGSGGGGTGDSEGSGALPSLTCSLTPLGLALVLWTVLGPC
B3: 78, 81: human NgR1 mutant, listed residues mutated to alanine (protein)
chain: CPGACVCYNEPKVTTSCPQQGLQAVPVGIPAASQRIFLHGNRISHVPAASFAACANLTILWLHSNVLARIDAAAFTGLALLEQLDLSDNAQLRSVDPATFHGLGRLHTLHLDRCGLQELGPGLFRGLAALQYLYLQDNALQALPDDTFRDLGNLTHLFLHGNRISSVPERAFRGLHSLDRLLLHQNRVAHVHPHAFRDLGRLMTLYLFANNLSALPTEALAPLRALQYLRLNDNPWVCDCRARPLWAWLQKFRGSSSEVPCSLPQRLAGRDLKRLAANDLQGCAVATGPYHPIWTGRATDEEPLGLPKCCQPDAADKASVLEPGRPASAGNALKGRVPPGDSPPGNGSGPRHINDSPFGTLPGSAEPPLTAVRPEGSEPPGFPTSGPRRRPGCSRKNRTRSHCRLGQAGSGGGGTGDSEGSGALPSLTCSLTPLGLALVLWTVLGPC
B4: 87, 89: human NgR1 mutant, listed residues mutated to alanine (protein)
chain: CPGACVCYNEPKVTTSCPQQGLQAVPVGIPAASQRIFLHGNRISHVPAASFRACRNLTILALASNVLARIDAAAFTGLALLEQLDLSDNAQLRSVDPATFHGLGRLHTLHLDRCGLQELGPGLFRGLAALQYLYLQDNALQALPDDTFRDLGNLTHLFLHGNRISSVPERAFRGLHSLDRLLLHQNRVAHVHPHAFRDLGRLMTLYLFANNLSALPTEALAPLRALQYLRLNDNPWVCDCRARPLWAWLQKFRGSSSEVPCSLPQRLAGRDLKRLAANDLQGCAVATGPYHPIWTGRATDEEPLGLPKCCQPDAADKASVLEPGRPASAGNALKGRVPPGDSPPGNGSGPRHINDSPFGTLPGSAEPPLTAVRPEGSEPPGFPTSGPRRRPGCSRKNRTRSHCRLGQAGSGGGGTGDSEGSGALPSLTCSLTPLGLALVLWTVLGPC
B5: 89, 90: human NgR1 mutant, listed residues mutated to alanine (protein)
chain: CPGACVCYNEPKVTTSCPQQGLQAVPVGIPAASQRIFLHGNRISHVPAASFRACRNLTILWLAANVLARIDAAAFTGLALLEQLDLSDNAQLRSVDPATFHGLGRLHTLHLDRCGLQELGPGLFRGLAALQYLYLQDNALQALPDDTFRDLGNLTHLFLHGNRISSVPERAFRGLHSLDRLLLHQNRVAHVHPHAFRDLGRLMTLYLFANNLSALPTEALAPLRALQYLRLNDNPWVCDCRARPLWAWLQKFRGSSSEVPCSLPQRLAGRDLKRLAANDLQGCAVATGPYHPIWTGRATDEEPLGLPKCCQPDAADKASVLEPGRPASAGNALKGRVPPGDSPPGNGSGPRHINDSPFGTLPGSAEPPLTAVRPEGSEPPGFPTSGPRRRPGCSRKNRTRSHCRLGQAGSGGGGTGDSEGSGALPSLTCSLTPLGLALVLWTVLGPC
B6: 95, 97: human NgR1 mutant, listed residues mutated to alanine (protein)
chain: CPGACVCYNEPKVTTSCPQQGLQAVPVGIPAASQRIFLHGNRISHVPAASFRACRNLTILWLHSNVLAAIAAAAFTGLALLEQLDLSDNAQLRSVDPATFHGLGRLHTLHLDRCGLQELGPGLFRGLAALQYLYLQDNALQALPDDTFRDLGNLTHLFLHGNRISSVPERAFRGLHSLDRLLLHQNRVAHVHPHAFRDLGRLMTLYLFANNLSALPTEALAPLRALQYLRLNDNPWVCDCRARPLWAWLQKFRGSSSEVPCSLPQRLAGRDLKRLAANDLQGCAVATGPYHPIWTGRATDEEPLGLPKCCQPDAADKASVLEPGRPASAGNALKGRVPPGDSPPGNGSGPRHINDSPFGTLPGSAEPPLTAVRPEGSEPPGFPTSGPRRRPGCSRKNRTRSHCRLGQAGSGGGGTGDSEGSGALPSLTCSLTPLGLALVLWTVLGPC
B7: 95, 97, 122: human NgR1 mutant, listed residues mutated to alanine (protein)
chain: CPGACVCYNEPKVTTSCPQQGLQAVPVGIPAASQRIFLHGNRISHVPAASFRACRNLTILWLHSNVLAAIAAAAFTGLALLEQLDLSDNAQLRSVAPATFHGLGRLHTLHLDRCGLQELGPGLFRGLAALQYLYLQDNALQALPDDTFRDLGNLTHLFLHGNRISSVPERAFRGLHSLDRLLLHQNRVAHVHPHAFRDLGRLMTLYLFANNLSALPTEALAPLRALQYLRLNDNPWVCDCRARPLWAWLQKFRGSSSEVPCSLPQRLAGRDLKRLAANDLQGCAVATGPYHPIWTGRATDEEPLGLPKCCQPDAADKASVLEPGRPASAGNALKGRVPPGDSPPGNGSGPRHINDSPFGTLPGSAEPPLTAVRPEGSEPPGFPTSGPRRRPGCSRKNRTRSHCRLGQAGSGGGGTGDSEGSGALPSLTCSLTPLGLALVLWTVLGPC
B8: 36, 38, 61: human NgR1 mutant, listed residues mutated to alanine (protein)
chain: CPGACVCYNAPAVTTSCPQQGLQAVPVGIPAASQAIFLHGNRISHVPAASFRACRNLTILWLHSNVLARIDAAAFTGLALLEQLDLSDNAQLRSVDPATFHGLGRLHTLHLDRCGLQELGPGLFRGLAALQYLYLQDNALQALPDDTFRDLGNLTHLFLHGNRISSVPERAFRGLHSLDRLLLHQNRVAHVHPHAFRDLGRLMTLYLFANNLSALPTEALAPLRALQYLRLNDNPWVCDCRARPLWAWLQKFRGSSSEVPCSLPQRLAGRDLKRLAANDLQGCAVATGPYHPIWTGRATDEEPLGLPKCCQPDAADKASVLEPGRPASAGNALKGRVPPGDSPPGNGSGPRHINDSPFGTLPGSAEPPLTAVRPEGSEPPGFPTSGPRRRPGCSRKNRTRSHCRLGQAGSGGGGTGDSEGSGALPSLTCSLTPLGLALVLWTVLGPC
B9: 114, 117, 139: human NgR1 mutant, listed residues mutated to alanine (protein)
chain: CPGACVCYNEPKVTTSCPQQGLQAVPVGIPAASQRIFLHGNRISHVPAASFRACRNLTILWLHSNVLARIDAAAFTGLALLEQLDLSANAALRSVDPATFHGLGRLHTLHLDACGLQELGPGLFRGLAALQYLYLQDNALQALPDDTFRDLGNLTHLFLHGNRISSVPERAFRGLHSLDRLLLHQNRVAHVHPHAFRDLGRLMTLYLFANNLSALPTEALAPLRALQYLRLNDNPWVCDCRARPLWAWLQKFRGSSSEVPCSLPQRLAGRDLKRLAANDLQGCAVATGPYHPIWTGRATDEEPLGLPKCCQPDAADKASVLEPGRPASAGNALKGRVPPGDSPPGNGSGPRHINDSPFGTLPGSAEPPLTAVRPEGSEPPGFPTSGPRRRPGCSRKNRTRSHCRLGQAGSGGGGTGDSEGSGALPSLTCSLTPLGLALVLWTVLGPC
B10: 117, 119, 120: human NgR1 mutant, listed residues mutated to alanine (protein)
chain: CPGACVCYNEPKVTTSCPQQGLQAVPVGIPAASQRIFLHGNRISHVPAASFRACRNLTILWLHSNVLARIDAAAFTGLALLEQLDLSDNAALAAVDPATFHGLGRLHTLHLDRCGLQELGPGLFRGLAALQYLYLQDNALQALPDDTFRDLGNLTHLFLHGNRISSVPERAFRGLHSLDRLLLHQNRVAHVHPHAFRDLGRLMTLYLFANNLSALPTEALAPLRALQYLRLNDNPWVCDCRARPLWAWLQKFRGSSSEVPCSLPQRLAGRDLKRLAANDLQGCAVATGPYHPIWTGRATDEEPLGLPKCCQPDAADKASVLEPGRPASAGNALKGRVPPGDSPPGNGSGPRHINDSPFGTLPGSAEPPLTAVRPEGSEPPGFPTSGPRRRPGCSRKNRTRSHCRLGQAGSGGGGTGDSEGSGALPSLTCSLTPLGLALVLWTVLGPC
B11: 216, 218, 220: human NgR1 mutant, listed residues mutated to alanine (protein)
chain: CPGACVCYNEPKVTTSCPQQGLQAVPVGIPAASQRIFLHGNRISHVPAASFRACRNLTILWLHSNVLARIDAAAFTGLALLEQLDLSDNAQLRSVDPATFHGLGRLHTLHLDRCGLQELGPGLFRGLAALQYLYLQDNALQALPDDTFRDLGNLTHLFLHGNRISSVPERAFRGLHSLDRLLLHQNRVAAVAPAAFRDLGRLMTLYLFANNLSALPTEALAPLRALQYLRLNDNPWVCDCRARPLWAWLQKFRGSSSEVPCSLPQRLAGRDLKRLAANDLQGCAVATGPYHPIWTGRATDEEPLGLPKCCQPDAADKASVLEPGRPASAGNALKGRVPPGDSPPGNGSGPRHINDSPFGTLPGSAEPPLTAVRPEGSEPPGFPTSGPRRRPGCSRKNRTRSHCRLGQAGSGGGGTGDSEGSGALPSLTCSLTPLGLALVLWTVLGPC

tested on: anti-NgR; experiment: anti-NgR staining of NgR mutants; type: binding; set-up: key: ++: WT level; +: weaker than wild type; trace binding; −: no binding; details: COS-7 cells expressing NgR mutants

anti-NgR, ++:
B1, B2, B3, B4, B5, B6, B7, B8, B9, B10, B11
